# Reference: article PMC12586603
# Sequences of proteins named here, by UniProt entry; tags and fusion partners are left off.
# UniProt Q8N163: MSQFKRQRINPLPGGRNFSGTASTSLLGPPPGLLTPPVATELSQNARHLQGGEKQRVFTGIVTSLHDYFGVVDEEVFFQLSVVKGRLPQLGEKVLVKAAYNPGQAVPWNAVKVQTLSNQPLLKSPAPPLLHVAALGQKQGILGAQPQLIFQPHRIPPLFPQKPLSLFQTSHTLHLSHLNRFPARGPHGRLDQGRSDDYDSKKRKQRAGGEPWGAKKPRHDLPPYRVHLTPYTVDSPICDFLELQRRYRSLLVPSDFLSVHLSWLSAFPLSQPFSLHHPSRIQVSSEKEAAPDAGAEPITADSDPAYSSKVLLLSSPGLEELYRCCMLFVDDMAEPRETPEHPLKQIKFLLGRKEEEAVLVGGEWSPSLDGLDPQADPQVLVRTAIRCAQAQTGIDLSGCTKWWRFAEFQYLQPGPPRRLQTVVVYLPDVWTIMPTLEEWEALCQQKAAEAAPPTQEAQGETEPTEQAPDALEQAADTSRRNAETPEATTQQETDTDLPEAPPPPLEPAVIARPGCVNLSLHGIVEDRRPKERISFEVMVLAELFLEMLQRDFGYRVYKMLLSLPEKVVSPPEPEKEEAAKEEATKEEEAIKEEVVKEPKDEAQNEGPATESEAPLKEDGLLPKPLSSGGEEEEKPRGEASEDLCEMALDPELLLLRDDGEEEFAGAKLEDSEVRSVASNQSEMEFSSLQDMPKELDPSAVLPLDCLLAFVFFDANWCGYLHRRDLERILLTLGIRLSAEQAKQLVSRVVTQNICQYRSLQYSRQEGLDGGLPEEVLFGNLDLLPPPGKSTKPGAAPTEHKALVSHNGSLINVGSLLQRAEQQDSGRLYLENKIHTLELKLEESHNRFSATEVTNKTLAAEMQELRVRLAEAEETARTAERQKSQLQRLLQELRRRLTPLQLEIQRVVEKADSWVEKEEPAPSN
# UniProt Q00613: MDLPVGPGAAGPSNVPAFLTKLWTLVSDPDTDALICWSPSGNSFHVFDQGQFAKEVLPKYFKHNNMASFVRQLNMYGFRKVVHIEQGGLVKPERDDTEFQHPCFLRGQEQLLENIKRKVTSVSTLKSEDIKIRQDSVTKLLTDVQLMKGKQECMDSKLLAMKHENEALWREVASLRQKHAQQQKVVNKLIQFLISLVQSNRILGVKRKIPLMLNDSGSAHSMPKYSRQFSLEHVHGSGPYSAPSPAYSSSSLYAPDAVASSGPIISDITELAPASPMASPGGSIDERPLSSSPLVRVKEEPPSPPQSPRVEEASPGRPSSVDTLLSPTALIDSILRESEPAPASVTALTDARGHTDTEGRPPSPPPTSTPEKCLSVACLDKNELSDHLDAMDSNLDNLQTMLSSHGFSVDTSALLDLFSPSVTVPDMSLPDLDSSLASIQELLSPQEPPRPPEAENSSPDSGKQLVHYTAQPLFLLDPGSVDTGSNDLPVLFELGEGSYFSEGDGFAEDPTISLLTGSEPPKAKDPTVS
# UniProt Q9UNE7: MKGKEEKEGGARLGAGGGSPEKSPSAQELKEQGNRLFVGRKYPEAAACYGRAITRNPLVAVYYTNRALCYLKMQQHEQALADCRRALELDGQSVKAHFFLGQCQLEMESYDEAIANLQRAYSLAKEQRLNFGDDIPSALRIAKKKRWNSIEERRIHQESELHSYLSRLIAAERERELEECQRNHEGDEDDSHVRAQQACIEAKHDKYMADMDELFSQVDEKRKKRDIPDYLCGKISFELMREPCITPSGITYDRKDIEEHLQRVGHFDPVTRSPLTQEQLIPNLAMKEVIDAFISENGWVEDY
# No constants are given. Whether binding was seen depends on the method and setting. For some of these results: Binding seen in cells or lysates may run through a third protein. Some results given as binding are weak or reduced against the parent protein; the word gives no strength.
# Key:
# [1] = molecular target: GST-DBC1 (UniProt Q8N163); experiment: pull-down; GST-DBC1 as bait; FLAG-HSF1 purified from 293T cells (with or without HS), untreated or treated with λ-phosphatase; immunoblot; both purified
# [2] = molecular target: Heat shock factor 1 (HSF1), endogenous (human (endogenous in 22RV1 and SM1)) (UniProt Q00613); experiment: co-IP; SM1 cells transfected with expression vectors (CHIP, with or without DBC1); lysates immunoprecipitated with anti-HSF1 antibodies, immunoblot
# [3] = molecular target: 3xFLAG-HSF1 (UniProt Q00613); experiment: co-IP; 293T cells transfected with expression constructs; lysates immunoprecipitated with FLAG-M2 agarose beads (FLAG-HSF1 immunoprecipitates), immunoblot; with or without coexpressed DYRK2 or DBC1
binding [1],Substance,also measured
binds,3xFLAG-HSF1 (from UniProt Q00613 1-529),–
–,CHIP-V5 (from UniProt Q9UNE7 1-303) (enzyme),binding [2]: binds
binds weakly,FLAG-HSF1 treated with λ-phosphatase (from UniProt Q00613 1-529),–
–,HSP90β E42A (client-trapping mutant of HSP90β) (from UniProt P08238 1-724),binding [3]: binds
